The text below walks through data of paper PMC7862700.

Sequences of proteins named here, by UniProt entry; tags and fusion partners are left off. A change or cut given only in a name is not applied to a line headed by its entry.
UniProt O43186: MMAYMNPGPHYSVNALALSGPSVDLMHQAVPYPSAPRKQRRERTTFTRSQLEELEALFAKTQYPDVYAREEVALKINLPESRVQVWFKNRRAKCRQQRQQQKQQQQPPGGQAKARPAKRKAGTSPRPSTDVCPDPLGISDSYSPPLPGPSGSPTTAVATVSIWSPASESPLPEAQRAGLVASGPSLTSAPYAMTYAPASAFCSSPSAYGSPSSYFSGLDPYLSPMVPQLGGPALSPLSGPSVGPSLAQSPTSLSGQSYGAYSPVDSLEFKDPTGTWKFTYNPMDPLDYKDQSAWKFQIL

Only a part is listed here, and it is no random draw. At the low end of the ranking, values are background and their order means little.

For the first experiment, the target named is T1, FEV (UniProt Q99581).
T1 sequence: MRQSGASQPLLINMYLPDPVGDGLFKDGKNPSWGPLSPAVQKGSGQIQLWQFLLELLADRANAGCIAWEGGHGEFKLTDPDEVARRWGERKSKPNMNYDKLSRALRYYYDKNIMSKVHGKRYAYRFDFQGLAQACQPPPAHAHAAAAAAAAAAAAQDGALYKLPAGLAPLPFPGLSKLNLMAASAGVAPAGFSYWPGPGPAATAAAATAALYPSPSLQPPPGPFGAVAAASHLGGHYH
Description: DAPPL (digital affinity profiling via proximity ligation, sequencing). The settings on record: 10 mM Tris-HCl pH 7.5, 50 mM NaCl, 1 mM DTT, 4% glycerol, room temperature, 30 min; GST-TFs on glutathione beads, 16-mer random dsDNA library, 0.1% …; high values mean tight binding; double strand, one strand shown; scale: fold enrichment (6-mer frequency, TF over GST control).
Sequence GAGTGT displayed a binding signal of 0.511.
As to GCATTG, the binding signal was determined as 0.784.
With GACCCT, the binding signal came to 0.881.
TTGTGA: the binding signal stood at 0.774.
GTAGTG came in with a binding signal of 0.723.
On the same count and under the same terms, for GGAGCC the value was 0.336; for AACGTG, 0.36; for GGGTCA, 0.707.
For the sequence AACGGG, the binding signal worked out at 0.716.
For GCATGA, the binding signal came to 0.811.
In the case of GGCAAA, the binding signal was found to be 0.919.
Same read-out and setting: the result for GCGCAA reads 0.854.
As to GGAGGG, the binding signal came to 0.309.
With GACAGC, the binding signal amounted to 0.743.
In the case of GAGATG, the binding signal is 0.677.
GAGGAC yielded a binding signal of 0.632.
GGGCGA yielded a binding signal of 0.814.
AGCCGT gave a binding signal of 0.484.
Sequence GTCAGT registered a binding signal of 0.611.
In turn, GACCAT had a binding signal of 0.89.
Sequence ATGGAG yielded a binding signal of 0.532.
In turn, GTGAAG yielded a binding signal of 0.544.
On to CGGACT, for which the binding signal stood at 0.917.
Take CGCCGT: the binding signal was 0.937.
Turning to CAACAG, the binding signal came out at 0.894.
With ACCAGT, the binding signal came out at 0.46.
TGAGAC had a binding signal of 0.555.
TTCGTG registered a binding signal of 0.928.
The sequence CTGGAG displayed a binding signal of 0.627.
Still for that read-out and setting: for GAAGGG the value was 0.795.
In turn, TGTAGG gave a binding signal of 0.787.
GCACGT registered a binding signal of 0.81.
TGAGCG registered a binding signal of 0.648.
The sequence CGCAGT showed a binding signal of 0.785.
Sequence GCGGGC came in with a binding signal of 0.804.
Still for that read-out and setting: for GTAGTC the value was 0.667; for GGGGTC, 0.58.
Consider ACGTCG, for which the binding signal was found to be 0.641.
The sequence GGGGGG yielded a binding signal of 0.593.

The next experiment has as its target CRX (UniProt O43186). Described as above. The settings on record: 10 mM Tris-HCl pH 7.5, 50 mM NaCl, 1 mM DTT, 4% glycerol, room temperature, 30 min; GST-TFs on glutathione beads, 16-mer random dsDNA library, 0.1% …; high values mean tight binding; double strand, one strand shown; scale: fold enrichment (6-mer frequency, TF over GST control).
Turning to GAGTGT, the binding signal was 0.427.
GCATTG: the binding signal stood at 0.657.
For GACCCT, the binding signal was 0.778.
Sequence TTGTGA returned a binding signal of 0.822.
As for GTAGTG, the binding signal turned out to be 0.577.
Consider GGAGCC, for which the binding signal amounted to 0.268.
Turning to AACGTG, the binding signal was found to be 0.331.
On to GGGTCA, for which the binding signal was 0.51.
The sequence AACGGG yielded a binding signal of 0.604.
Take GCATGA: the binding signal amounted to 0.677.
Sequence GGCAAA returned a binding signal of 0.806.
Turning to GCGCAA, the binding signal was 0.688.
With GGAGGG, the binding signal was determined as 0.267.
Sequence GACAGC came in with a binding signal of 0.57.
GAGATG showed a binding signal of 0.627.
In the case of GAGGAC, the binding signal is 0.487.
Same read-out and setting: the result for GGGCGA reads 0.663.
AGCCGT displayed a binding signal of 0.496.
On to GTCAGT, for which the binding signal came out at 0.45.
Take GACCAT: the binding signal came to 0.661.
ATGGAG returned a binding signal of 0.546.
Take GTGAAG: the binding signal was 0.471.
For the sequence CGGACT, the binding signal amounted to 0.694.
Turning to CGCCGT, the binding signal is 0.713.
Sequence CAACAG gave a binding signal of 0.74.
On to ACCAGT, for which the binding signal is 0.408.
Take TGAGAC: the binding signal stood at 0.467.
In turn, TTCGTG had a binding signal of 0.882.
The sequence CTGGAG gave a binding signal of 0.639.
Sequence GAAGGG yielded a binding signal of 0.65.
As for TGTAGG, the binding signal is 0.667.
GCACGT returned a binding signal of 0.661.
TGAGCG showed a binding signal of 0.608.
The same measure, in the same setting: for CGCAGT the value was 0.616; for GCGGGC, 0.553; for GTAGTC, 0.547.
The sequence GGGGTC registered a binding signal of 0.46.
As for ACGTCG, the binding signal was 0.519.
The same measure, in the same setting: for GGGGGG the value was 0.44.

In a further experiment the target is T2, ELF5 (UniProt Q9UKW6-2).
T2 sequence: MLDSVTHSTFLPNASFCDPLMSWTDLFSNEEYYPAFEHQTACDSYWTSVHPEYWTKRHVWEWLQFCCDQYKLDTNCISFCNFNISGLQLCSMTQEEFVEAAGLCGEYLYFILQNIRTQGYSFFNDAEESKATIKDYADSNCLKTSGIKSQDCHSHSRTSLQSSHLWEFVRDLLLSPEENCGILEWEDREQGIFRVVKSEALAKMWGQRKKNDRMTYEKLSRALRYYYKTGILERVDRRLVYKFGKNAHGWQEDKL
Described as above. The settings on record: 10 mM Tris-HCl pH 7.5, 50 mM NaCl, 1 mM DTT, 4% glycerol, room temperature, 30 min; GST-TFs on glutathione beads, 16-mer random dsDNA library, 0.1% …; high values mean tight binding; double strand, one strand shown; scale: fold enrichment (6-mer frequency, TF over GST control).
On to GAGTGT, for which the binding signal was found to be 0.495.
Regarding GCATTG, the binding signal came to 0.769.
The sequence GACCCT returned a binding signal of 0.855.
Still for that read-out and setting: the result for TTGTGA reads 0.727.
GTAGTG gave a binding signal of 0.809.
On the same count and under the same terms, the result for GGAGCC reads 0.309; that for AACGTG, 0.349.
In the case of GGGTCA, the binding signal is 0.703.
Still for that read-out and setting: for AACGGG the value was 0.729.
GCATGA came in with a binding signal of 0.753.
Consider GGCAAA, for which the binding signal came out at 0.903.
Still for that read-out and setting: for GCGCAA the value was 0.77; for GGAGGG, 0.306.
As for GACAGC, the binding signal was 0.763.
The sequence GAGATG returned a binding signal of 0.663.
As to GAGGAC, the binding signal was 0.641.
The same measure, in the same setting: the result for GGGCGA reads 0.779; that for AGCCGT, 0.46.
As for GTCAGT, the binding signal stood at 0.554.
Same read-out and setting: for GACCAT the value was 0.824; for ATGGAG, 0.565; for GTGAAG, 0.514.
As for CGGACT, the binding signal was determined as 0.836.
For the sequence CGCCGT, the binding signal stood at 0.901.
CAACAG registered a binding signal of 0.891.
With ACCAGT, the binding signal stood at 0.44.
Sequence TGAGAC returned a binding signal of 0.497.
TTCGTG displayed a binding signal of 0.906.
Take CTGGAG: the binding signal was 0.648.
On the same count and under the same terms, the result for GAAGGG reads 0.846.
Consider TGTAGG, for which the binding signal turned out to be 0.774.
GCACGT returned a binding signal of 0.772.
TGAGCG: the binding signal was determined as 0.591.
Take CGCAGT: the binding signal amounted to 0.716.
Sequence GCGGGC returned a binding signal of 0.605.
As for GTAGTC, the binding signal is 0.729.
For GGGGTC, the binding signal was found to be 0.58.
Sequence ACGTCG gave a binding signal of 0.666.
GGGGGG: the binding signal turned out to be 0.533.
